Data as given in PubChem BioAssay AID1159584 (Peter MacCallum Cancer Centre, 2016)
Screen: 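Knock-downs that harm CDH1-null cells more than parental MCF10A cells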 (primary screen). Cell system: human MCF10A breast epithelial cells, parental and CDH1-null. Reagents: siRNA against human genes. Measured: 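ATP luminescence (CellTiter-Glo) viability per line relative to mean mock wells over all plates, and the ratio of CDH1-null to parental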. Scale: CDH1-null / parental viability ratio: higher = CDH1-null cells survive relatively better than parental; CDH1-null viability vs mock: higher = more viable CDH1-null cells.
In all, the deposit lists about 18,000 reagents; below is an unselected part. Further read-outs or replicates are left out here. No sequences are given here. The record does not give: the amount of reagent, the time to read-out.

With knock-down of TOMM20L (translocase of outer mitochondrial membrane 20 like) the results were CDH1-null / parental viability ratio 1.54; CDH1-null viability vs mock (fraction of mock) = 0.83.
After knock-down of KCNJ16 (potassium inwardly rectifying channel subfamily J member 16), the record shows CDH1-null / parental viability ratio 1.05; CDH1-null viability vs mock (fraction of mock) = 0.82.
CAT (catalase) gave CDH1-null / parental viability ratio 0.96; CDH1-null viability vs mock (fraction of mock) = 0.82.
Silencing of BRI3 (brain protein I3) gave: CDH1-null / parental viability ratio 1.13; CDH1-null viability vs mock (fraction of mock) = 1.08.
Silencing of FAM76B (family with sequence similarity 76 member B) resulted in: CDH1-null / parental viability ratio 0.94; CDH1-null viability vs mock (fraction of mock) = 0.88.
With knock-down of OR4X1 (olfactory receptor family 4 subfamily X member 1), the screen gave CDH1-null / parental viability ratio 0.61; CDH1-null viability vs mock (fraction of mock) = 0.46.
Against CYB5D1 (cytochrome b5 domain containing 1) the deposit lists CDH1-null / parental viability ratio 1.05; CDH1-null viability vs mock (fraction of mock) = 0.67.
Knock-down of ZNF526 (zinc finger protein 526) resulted in: CDH1-null / parental viability ratio 1.01; CDH1-null viability vs mock (fraction of mock) = 0.84.
Depletion of KIFC1 (kinesin family member C1) gave: CDH1-null / parental viability ratio 0.87; CDH1-null viability vs mock (fraction of mock) = 0.78.
After knock-down of DRG1 (developmentally regulated GTP binding protein 1) the results were CDH1-null / parental viability ratio 1.15; CDH1-null viability vs mock (fraction of mock) = 0.98.
Against ACTN4 (actinin alpha 4) the deposit lists CDH1-null / parental viability ratio 1.07; CDH1-null viability vs mock (fraction of mock) = 0.9.
After knock-down of FAM168A (family with sequence similarity 168 member A) the results were CDH1-null / parental viability ratio 1.67; CDH1-null viability vs mock (fraction of mock) = 0.5.
For ITPRID2 (ITPR interacting domain containing 2), the values are CDH1-null / parental viability ratio 1; CDH1-null viability vs mock (fraction of mock) = 0.95.

Reformatted: entries from further up
Gene,CDH1-null / parental viability ratio,CDH1-null viability vs mock (fraction of mock)
FAM168A (family with sequence similarity 168 member A),1.67,0.5
ITPRID2 (ITPR interacting domain containing 2),1,0.95

Further records:
For SPPL2B (signal peptide peptidase like 2B), the values are CDH1-null / parental viability ratio 1.32; CDH1-null viability vs mock (fraction of mock) = 0.82.
After knock-down of IFNA7 (interferon alpha 7) the results were CDH1-null / parental viability ratio 1.11; CDH1-null viability vs mock (fraction of mock) = 0.6.
ZBTB43 (zinc finger and BTB domain containing 43) scored CDH1-null / parental viability ratio 0.9; CDH1-null viability vs mock (fraction of mock) = 0.78.
Knock-down of APCS (amyloid P component, serum) resulted in: CDH1-null / parental viability ratio 1.12; CDH1-null viability vs mock (fraction of mock) = 1.23.
DLGAP1 (DLG associated protein 1) showed CDH1-null / parental viability ratio 0.96; CDH1-null viability vs mock (fraction of mock) = 0.67.
MYBPH (myosin binding protein H) scored CDH1-null / parental viability ratio 1.04; CDH1-null viability vs mock (fraction of mock) = 0.47.
With knock-down of PCDHAC2 (protocadherin alpha subfamily C, 2) the results were CDH1-null / parental viability ratio 1.6; CDH1-null viability vs mock (fraction of mock) = 0.77.
After knock-down of MRPL42 (mitochondrial ribosomal protein L42) the results were CDH1-null / parental viability ratio 1.06; CDH1-null viability vs mock (fraction of mock) = 0.34.
With knock-down of SDCCAG8 (SHH signaling and ciliogenesis regulator SDCCAG8), the record shows CDH1-null / parental viability ratio 1.14; CDH1-null viability vs mock (fraction of mock) = 1.07.
With knock-down of RNPEPL1 (arginyl aminopeptidase like 1) the results were CDH1-null / parental viability ratio 1.24; CDH1-null viability vs mock (fraction of mock) = 0.42.
After knock-down of TNFRSF13C (TNF receptor superfamily member 13C) the results were CDH1-null / parental viability ratio 1.13; CDH1-null viability vs mock (fraction of mock) = 0.44.
